Laboratory results published in article PMC6723352, “Exploring Structure-Activity Relationship in Tacrine-Squaramide Derivatives as Potent Cholinesterase Inhibitors” (Biomolecules, 2019).

Details: PAMPA, PBS pH 7.4
Excerpt: An important feature for drugs targeting the brain is their ability to cross the BBB. The parallel artificial membrane permeability assay (PAMPA) is a high-throughput screening tool applicable for prediction of passive transport across BBB [57]. […] These include mainly (i) the different composition of the human phospholipid bilayer may cause deviation in predicted permeability, (ii) omitting the absorption of compounds that are actively transported by influx transporters and pumped-out by various efflux mechanisms with the glycoprotein P at the forefront or (iii) transport through the paracellular route which is mostly exploited by small hydrophobic molecules. […]
PAMPA (the parallel artificial membrane permeability assay) is a high-throughput screening tool applicable for prediction of the passive transport of potential drugs across the blood-brain barrier (BBB). […] The concentration of the tested compound in both donor and the acceptor wells were assessed after 3, 4, 5 and 6 h of incubation in quadruplicate using the UV plate reader Synergy HT (Biotek, USA) at the maximum absorption wavelength of each compound (n = 3). Besides that, the solution of theoretical compound concentration, simulating the equilibrium state, established if the membrane was ideally permeable was prepared and assessed as well.

For `NS(=O)(=O)c1cc(C(=O)O)c(NCc2ccco2)cc1Cl` [furosemide, reference compound], the Pe was 0 ×10⁻⁶ cm/s.
